Test results from patent USRE46630E1, “Substituted 4-pyridones and their use as inhibitors of neutrophil elastase activity” (Boehringer Ingelheim International GmbH, priority 2012, dated 2017).

The chains behind the UniProt entries cited, without tags or fusion partners. Residues count along the entry.
UniProt P08246, 30-267 limits assumed: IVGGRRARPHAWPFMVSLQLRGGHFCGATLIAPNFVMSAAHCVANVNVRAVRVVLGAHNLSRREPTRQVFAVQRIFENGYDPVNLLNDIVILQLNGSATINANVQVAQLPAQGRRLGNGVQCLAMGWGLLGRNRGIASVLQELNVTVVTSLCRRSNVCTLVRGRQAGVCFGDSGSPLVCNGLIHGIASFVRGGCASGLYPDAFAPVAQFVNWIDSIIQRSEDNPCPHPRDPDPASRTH

Molecular target: Human neutrophil elastase (Homo sapiens, UniProt P08246)
Experiment: Human Neutrophil Elastase Assay
Type: biochemical
Conditions: substrate MeOSuc-Ala-Ala-Pro-Val-AMC 250 μM, 15 min preincubation, 60 min incubation at room temperature, pH 7.5

Cc1nc(CNC(=O)c2cn(C(C)c3ccc(C#N)cn3)c(C)c(-c3cccc(C(F)(F)F)c3)c2=O)no1 (centres unmarked)
IC50: 13.4 nM

Cc1c(-c2cccc(C(F)(F)F)c2)c(=O)c(C(=O)NC(C)(C)C#N)cn1C(C)c1ccc(C#N)cn1 (centres unmarked)
IC50: 139 nM

Cc1noc(CNC(=O)c2cn(C(C)c3ccc(C#N)cc3)c(C)c(-c3ccnc(C(F)(F)F)c3)c2=O)n1 (single isomer, unassigned) [Example 9.5]
IC50: 5.7 nM

Cc1c(-c2cccc(C(F)(F)F)c2)c(=O)c(C(=O)NC2COC2)cn1C(C)c1ccc(C#N)cn1 (centres unmarked)
IC50: 26.4 nM

Cc1c(-c2cccc(C(F)(F)F)c2)c(=O)c(C(=O)NCc2cnn(C)c2)cn1C(C)c1ccc(C#N)cn1 (centres unmarked)
IC50: 13.1 nM

The match of structure and compound is tentative.
